These are yes or no findings as the source states them, for the method shown. For some assays here: In cells and extracts the contact can be indirect. Some results given as binding are weak or reduced against the parent protein; the word gives no strength.
Assays:
Flag-TGFβRII [1] = target: Flag-TGFβRII (UniProt P37173); experiment: 293 cells transfected with Flagged TGFβRII labeled with Biotin-PTH (1-34); anti-Flag IP, anti-Biotin Western blot
Flag-TGFβRII [2] = target: Flag-TGFβRII (UniProt P37173); experiment: Biotin-PTH (1-34) labeling of Flag-TGFβRII-transfected 293 cells; Western blot and anti-Flag IP
[3] = target: PTH1R tagged with HA (human) (UniProt Q03431); experiment: reciprocal co-IP (anti-Flag / anti-HA), 293 cells
[4] = target: PTH1R tagged with HA (human) (UniProt Q03431); experiment: interaction test with conditioned medium; format not described
Flag-TGFβRII [5] = target: Flag-TGFβRII (UniProt P37173); experiment: fluorescence microscopy, HEK293-PTH1R cells expressing Flag-tagged TGFβRII
[6] = target: PTH1R tagged with HA (human) (UniProt Q03431); experiment: co-IP anti-VSVG, blot anti-HA, 293HEK cells
[7] = target: PTH1R tagged with HA (human) (UniProt Q03431); experiment: co-IP anti-HA / anti-VSVG, HEK 293 cells
[8] = target: endogenous PTH1R of embryonic kidney 293 / 293T cells (human) (UniProt Q03431); experiment: co-IP with anti-ActRII, blot anti-PTH1R; 293 cells with vehicle or PTH (1-34) 50 nM
[9] = target: endogenous PTH1R of embryonic kidney 293 / 293T cells (human) (UniProt Q03431); experiment: co-IP with anti-ActRII, Western blot; 293 cells
[10] = target: endogenous PTH1R of embryonic kidney 293 / 293T cells (human) (UniProt Q03431); experiment: co-IP with anti-ActRIIB, Western blot; 293 cells
[11] = target: endogenous PTH1R of embryonic kidney 293 / 293T cells (human) (UniProt Q03431); experiment: co-IP with anti-ActRIIB, blot anti-PTH1R; 293 cells with vehicle or PTH (1-34) 50 nM

Amino acid sequences for entries named in this document (tags omitted). A change or cut given only in a name is not applied to a line headed by its entry. Chains listed by the source or under a name are the forms on record and can include a tag or linker. Residues count along the entry.
UniProt P37173, residues 23-567: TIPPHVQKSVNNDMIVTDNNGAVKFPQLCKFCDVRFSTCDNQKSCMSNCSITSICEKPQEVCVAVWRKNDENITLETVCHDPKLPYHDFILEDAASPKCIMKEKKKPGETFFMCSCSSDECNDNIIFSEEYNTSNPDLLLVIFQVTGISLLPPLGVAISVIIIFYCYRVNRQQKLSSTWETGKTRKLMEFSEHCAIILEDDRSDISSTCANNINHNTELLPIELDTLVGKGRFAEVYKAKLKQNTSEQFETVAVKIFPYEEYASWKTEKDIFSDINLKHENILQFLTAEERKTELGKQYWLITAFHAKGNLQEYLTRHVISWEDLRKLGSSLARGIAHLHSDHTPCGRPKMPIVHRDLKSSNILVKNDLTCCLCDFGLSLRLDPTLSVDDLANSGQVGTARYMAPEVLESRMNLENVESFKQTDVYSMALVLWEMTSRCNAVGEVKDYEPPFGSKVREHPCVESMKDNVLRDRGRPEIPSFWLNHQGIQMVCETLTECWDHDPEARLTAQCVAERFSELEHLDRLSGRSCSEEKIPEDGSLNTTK
UniProt Q03431, residues 27-593: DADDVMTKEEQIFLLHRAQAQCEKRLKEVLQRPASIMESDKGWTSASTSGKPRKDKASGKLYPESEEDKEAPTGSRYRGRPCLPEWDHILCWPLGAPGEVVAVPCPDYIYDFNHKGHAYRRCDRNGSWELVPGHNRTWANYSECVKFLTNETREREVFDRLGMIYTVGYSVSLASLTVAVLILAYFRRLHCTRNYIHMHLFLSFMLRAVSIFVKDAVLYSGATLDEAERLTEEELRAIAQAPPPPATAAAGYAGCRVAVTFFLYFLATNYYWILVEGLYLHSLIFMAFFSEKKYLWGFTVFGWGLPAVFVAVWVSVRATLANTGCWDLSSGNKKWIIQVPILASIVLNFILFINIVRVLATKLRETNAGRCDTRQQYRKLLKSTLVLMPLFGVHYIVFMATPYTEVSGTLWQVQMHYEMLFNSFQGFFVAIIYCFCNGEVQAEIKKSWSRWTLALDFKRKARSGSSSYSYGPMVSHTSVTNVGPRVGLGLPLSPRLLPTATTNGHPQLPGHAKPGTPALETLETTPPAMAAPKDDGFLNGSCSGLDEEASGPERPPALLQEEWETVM
UniProt P01270, residues 32-65: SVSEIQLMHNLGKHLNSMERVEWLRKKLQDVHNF
Flag-BMPRII short form (Q13873, form named): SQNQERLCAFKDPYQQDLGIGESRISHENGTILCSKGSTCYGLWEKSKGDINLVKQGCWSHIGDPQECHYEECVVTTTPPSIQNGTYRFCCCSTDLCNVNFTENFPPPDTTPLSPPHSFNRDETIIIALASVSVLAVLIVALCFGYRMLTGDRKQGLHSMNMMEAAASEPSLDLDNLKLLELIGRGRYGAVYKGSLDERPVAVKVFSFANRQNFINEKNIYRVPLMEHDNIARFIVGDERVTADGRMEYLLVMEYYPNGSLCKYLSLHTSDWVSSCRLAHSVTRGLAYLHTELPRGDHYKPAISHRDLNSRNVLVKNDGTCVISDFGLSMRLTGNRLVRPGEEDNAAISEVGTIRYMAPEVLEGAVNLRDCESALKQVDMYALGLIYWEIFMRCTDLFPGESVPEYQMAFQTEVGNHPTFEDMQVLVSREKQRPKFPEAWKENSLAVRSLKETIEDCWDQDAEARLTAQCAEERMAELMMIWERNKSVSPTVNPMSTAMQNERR
UniProt O75581: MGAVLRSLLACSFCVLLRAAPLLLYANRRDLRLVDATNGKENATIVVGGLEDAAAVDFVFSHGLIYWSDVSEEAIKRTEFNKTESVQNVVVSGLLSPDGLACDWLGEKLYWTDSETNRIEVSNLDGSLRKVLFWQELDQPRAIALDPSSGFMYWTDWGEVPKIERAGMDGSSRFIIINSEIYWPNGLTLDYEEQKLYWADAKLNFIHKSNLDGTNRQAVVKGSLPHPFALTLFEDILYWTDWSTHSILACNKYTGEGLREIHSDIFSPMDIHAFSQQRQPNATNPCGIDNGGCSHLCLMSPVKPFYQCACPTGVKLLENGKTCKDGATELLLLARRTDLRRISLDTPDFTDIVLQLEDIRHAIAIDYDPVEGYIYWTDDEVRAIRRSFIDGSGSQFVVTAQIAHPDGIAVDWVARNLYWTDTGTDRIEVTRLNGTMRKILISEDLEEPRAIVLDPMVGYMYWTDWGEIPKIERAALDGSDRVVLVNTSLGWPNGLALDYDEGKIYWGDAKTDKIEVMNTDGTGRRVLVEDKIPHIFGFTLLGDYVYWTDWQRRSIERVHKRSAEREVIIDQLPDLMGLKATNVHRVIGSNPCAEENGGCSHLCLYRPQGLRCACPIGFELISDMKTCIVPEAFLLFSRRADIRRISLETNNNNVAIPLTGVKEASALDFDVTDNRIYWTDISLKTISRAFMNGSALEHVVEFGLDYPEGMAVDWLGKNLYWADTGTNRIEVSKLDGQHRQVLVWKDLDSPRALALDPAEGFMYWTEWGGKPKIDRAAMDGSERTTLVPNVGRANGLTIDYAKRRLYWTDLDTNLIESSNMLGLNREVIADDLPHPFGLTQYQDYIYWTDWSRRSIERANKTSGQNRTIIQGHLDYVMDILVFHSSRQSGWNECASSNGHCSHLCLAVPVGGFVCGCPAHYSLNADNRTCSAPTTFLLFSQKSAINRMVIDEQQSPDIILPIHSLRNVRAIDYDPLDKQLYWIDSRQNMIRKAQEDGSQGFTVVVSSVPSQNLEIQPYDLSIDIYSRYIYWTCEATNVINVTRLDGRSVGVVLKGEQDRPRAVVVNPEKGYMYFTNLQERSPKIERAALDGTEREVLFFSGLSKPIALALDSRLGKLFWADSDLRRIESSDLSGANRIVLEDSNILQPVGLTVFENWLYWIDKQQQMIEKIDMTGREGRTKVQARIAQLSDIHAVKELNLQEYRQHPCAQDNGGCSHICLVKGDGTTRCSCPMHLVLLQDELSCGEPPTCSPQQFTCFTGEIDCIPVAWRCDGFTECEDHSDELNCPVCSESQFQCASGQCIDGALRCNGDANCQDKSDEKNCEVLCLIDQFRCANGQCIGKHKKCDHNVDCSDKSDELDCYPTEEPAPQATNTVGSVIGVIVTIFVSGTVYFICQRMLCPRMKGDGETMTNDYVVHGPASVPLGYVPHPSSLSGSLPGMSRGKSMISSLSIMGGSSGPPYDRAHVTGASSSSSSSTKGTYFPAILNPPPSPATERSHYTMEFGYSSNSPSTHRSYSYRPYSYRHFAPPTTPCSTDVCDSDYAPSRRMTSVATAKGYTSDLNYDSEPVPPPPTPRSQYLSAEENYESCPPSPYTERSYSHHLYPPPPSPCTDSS
UniProt P27037, residues 20-513: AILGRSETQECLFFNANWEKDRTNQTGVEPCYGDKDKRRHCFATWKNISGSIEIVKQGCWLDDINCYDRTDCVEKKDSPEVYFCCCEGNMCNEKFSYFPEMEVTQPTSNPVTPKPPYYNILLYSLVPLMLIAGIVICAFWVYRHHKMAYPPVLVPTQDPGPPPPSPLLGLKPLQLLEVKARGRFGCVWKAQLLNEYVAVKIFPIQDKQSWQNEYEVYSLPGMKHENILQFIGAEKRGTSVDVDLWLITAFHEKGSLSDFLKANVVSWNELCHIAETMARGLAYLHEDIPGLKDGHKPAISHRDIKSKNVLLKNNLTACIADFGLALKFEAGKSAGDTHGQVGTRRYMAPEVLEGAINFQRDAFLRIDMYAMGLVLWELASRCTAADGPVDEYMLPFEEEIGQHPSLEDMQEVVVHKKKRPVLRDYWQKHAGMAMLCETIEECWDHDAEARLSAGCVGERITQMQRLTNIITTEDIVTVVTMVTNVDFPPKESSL
UniProt Q13705, residues 19-512: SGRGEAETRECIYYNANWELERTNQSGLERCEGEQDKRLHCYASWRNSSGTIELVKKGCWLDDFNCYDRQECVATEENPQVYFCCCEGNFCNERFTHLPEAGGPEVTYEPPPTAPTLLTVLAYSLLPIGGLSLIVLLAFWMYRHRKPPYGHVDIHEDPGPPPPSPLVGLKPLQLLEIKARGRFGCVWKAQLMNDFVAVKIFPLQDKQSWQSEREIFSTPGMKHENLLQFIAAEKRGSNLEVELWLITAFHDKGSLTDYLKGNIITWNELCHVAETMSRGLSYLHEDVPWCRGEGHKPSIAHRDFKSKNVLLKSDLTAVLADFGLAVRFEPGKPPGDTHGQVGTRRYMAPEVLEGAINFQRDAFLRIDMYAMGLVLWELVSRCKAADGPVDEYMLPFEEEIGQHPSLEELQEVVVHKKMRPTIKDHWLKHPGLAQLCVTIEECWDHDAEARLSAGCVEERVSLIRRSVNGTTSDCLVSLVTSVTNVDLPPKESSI

Substance: Biotin-PTH (1-34) (from UniProt P01270 32-65) (peptide)
- binding (Flag-TGFβRII [1]): binds
- binding (Flag-TGFβRII [2]): binds

Substance: Flag-BMPRII short form (from UniProt Q13873 27-530) (receptor)
- binding [3]: binds

Substance: LRP6N-IgG (conditioned medium) (from UniProt O75581 20-1370) (Fc fusion)
- binding [4]: binds

Substance: PTH^TMR (red fluorescent PTH (1-34)) (from UniProt P01270 32-65) (peptide)
- binding (Flag-TGFβRII [5]): binds

Substance: VSVG-tagged LRP6N (from UniProt O75581 20-1393) (receptor)
- binding [6]: binds
- binding [7]: binds

Substance: endogenous ActRII of embryonic kidney 293 cells (from UniProt P27037 20-513) (receptor)
- binding [8]: binds
- binding [9]: binds

Substance: endogenous ActRIIB of embryonic kidney 293 cells (from UniProt Q13705 19-512) (receptor)
- binding [10]: binds
- binding [11]: binds
